Laboratory results published in PubChem BioAssay AID624297 (National Center for Advancing Translational Sciences (NCATS), 2012).
Several values for one entry are separate records, joined by “and”; a condition that tells them apart may be missing. Equal entries are not always repeated. The campaign covered roughly 340,000 compounds. About 6,200 (1.8%) were called active. Inconclusive means that the source gave no clear call. Such entries were picked first, then a sample of the others. Calls come from the whole dose curve; as a rule, active = well fitted activation curve with a large enough effect; inconclusive = small, poorly fitted or top-dose-only effect; inactive = no such curve, though single readings can be large or run the other way. Potencies of inconclusive entries are doubtful fits and often do not repeat.

assay: A quantitative high throughput screen for small molecules that induce DNA re-replication in SW480 colon adenocarcinoma cells.; note: nearly all actives have a fitted effect of over 55% in size; for re-replication activation: % of control where 0% means no effect; details: Hoechst DNA content imaging, 48 h; re-replication activation: at 46.1 µM (top of the series)
In short: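 250 cells/well; 23 nL cpd via pin tool; 48 hr, 37 C, 5% CO2; Hoechst 40 min; imager read of total nuclear intensity, ex 405/em 500-530 nm.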
Potency is the fitted concentration of half-maximal effect.

| Structure (SMILES) | re-replication activation | Potency |
| --- | --- | --- |
| COc1ccc(N2CCN(C3CCCN(C(=O)C4=C(C)OCCO4)C3)CC2)cc1 (stereo not drawn) | inactive: -2.03% |  |
| Cc1ccc(NCc2cccc(B(O)O)c2)cc1 |  | inconclusive: 6.51 µM [activator, partial curve, poor fit] |
| Cc1ccc(OCCc2csc(N)n2)cc1 |  | inconclusive: 0.0052 µM [activator, full curve, poor fit] |
| O=C(CN1CCN(c2ccccn2)CC1)N1c2ccccc2CCc2ccccc21 | inactive: 10.8% |  |
| COc1ccc(NC(=O)c2ccc(COCC(F)(F)F)cc2)cc1OC | inactive: -3.98% |  |
| COc1ccc(OC)c(-c2csc(NC(=O)Cc3ccc(F)cc3)n2)c1 |  | inconclusive: 29.1 µM [activator, single point] |
| Cc1ccc(CN2CCN(Cc3ccc4cccc(F)c4n3)CC2CCO)cc1 (stereo not drawn) |  | inconclusive: 0.517 µM [activator, full curve, poor fit] |
| CCc1ccc(C(C(=O)NC2CCCC2)N(C(=O)/C=C/C(=O)Nc2cc(C)on2)c2ccccc2C)cc1 (stereo not drawn) |  | inconclusive: 23.1 µM [activator, single point] |
| N=C(N)c1ccc2cc(OC(=O)c3ccc(N=C(N)N)cc3)ccc2c1 | inactive: -10.3% |  |
| Cc1ccc(CNC(=O)C2CCC(=O)N(Cc3ccccc3F)C2)s1 (stereo not drawn) |  | inconclusive: 29.1 µM [activator, single point] |
| N=c1oc2ccc(Br)cc2cc1C(=O)NCc1ccc(F)cc1 |  | inconclusive: 6.51 µM [activator, single point] |
| O=C1c2ccccc2C(=O)c2c1ncn2-c1ccccc1 |  | active: 16.4 µM |
| CCOC(=O)/C(=N\Nc1ccccc1)S(=O)(=O)c1ccccc1 | inactive: 2.43% |  |
| Nc1ccccc1N=c1ssnc1Cl |  | inconclusive: 29.1 µM [activator, single point] |
| ClC(Cl)(c1nnnn1-c1ccccc1)c1nnnn1-c1ccccc1 |  | active: 13 µM |
| CCOc1cc(NC(=S)NCc2ccco2)c(OCC)cc1NC(=O)C1CC1 | inactive: 0.409% |  |
| O=C(CN1CCN(C(=O)C2CCN(C(=O)/C=C/c3ccccc3)CC2)CC1)Nc1ccccc1Cl |  | inconclusive: 29.1 µM [activator, single point] |
| CCc1ccc(N(CC(=O)NC(C)(C)C)C(=O)CCC(=O)Nc2ccccn2)cc1 |  | inconclusive: 29.1 µM [activator, single point] |
| Cc1cccc(NC(=S)N=Nc2c(O)n(C)c3ccc(S(=O)(=O)N4CCOCC4)cc23)c1 |  | inconclusive: 8.2 µM [activator, partial curve, poor fit] and inconclusive: 461 nM [activator, full curve, poor fit] |
| CCOC(=O)COc1cc2oc(=O)cc(C)c2cc1[N+](=O)[O-] | inactive: -0.76% |  |
| COc1ccc(/C=N/Nc2nc(-c3ccc(C)cc3)c(C#N)c(=O)[nH]2)cc1 |  | inconclusive: 25.9 µM [activator, single point] |
| COc1cccc(OC)c1OCCCNC1CCCC1 |  | active: 6.51 µM |

| Structure (SMILES) | re-replication activation | Potency |
| --- | --- | --- |
| COc1ccc(CN(CC(=O)NC2CCCC2)C(=O)c2ccc(-c3ccccc3)[nH]2)cc1 | inactive: 3.02% |  |
| COCCOC(=O)C1=C(C)N(c2ccccc2)C(=S)NC1c1ccccc1C(F)(F)F (stereo not drawn) | inactive: -22.3% |  |
| Cc1ccccc1OCCN1CCCC1 | inactive: -12% |  |
| Cc1cccc(-n2nc([N+](=O)[O-])c(=NC3CCN(Cc4ccccc4)CC3)n2O)c1 |  | inconclusive: 20.6 µM [activator, single point] |
| O=C(CSc1n[nH]c(=O)n1-c1ccc2c(c1)OCCO2)Nc1ccccc1 |  | inconclusive: 0.0052 µM [activator, full curve, poor fit] |
| Cc1oc(-c2nc3ccccc3n2C)cc1C(=O)c1ccccc1 |  | inconclusive: 31.6 µM [activator, single point] |
| O=C(NNC(=O)c1c(O)c2ccccc2[nH]c1=O)c1ccccc1 |  | inconclusive: 18.4 µM [activator, single point] |
| CCC1Oc2ccccc2N(CC(=O)NCCN2C(C)CCCC2C)C1=O (stereo not drawn) |  | inconclusive: 25.9 µM [activator, single point] |
| CC(C)c1ccc(NC(=O)COC(=O)c2ccc(CN3CCCC3=O)cc2)cc1 |  | inconclusive: 29.1 µM [activator, single point] |
| C[C@]12c3[nH]c4ccccc4c3CCN1C(=O)C(CC(=O)NCC13CC4CC(CC(C4)C1)C3)C[C@@H]2C(=O)N1CCOCC1 (stereo partly drawn) | inactive: 4.62% |  |
| CN(Cc1nc(Cc2ccccc2F)no1)Cc1cccc2ncccc12 |  | inconclusive: 25.9 µM [activator, partial curve, poor fit] |
| CCOc1cccc(C(=O)Nc2cccc(-c3nnc(-c4ccccc4)o3)c2)c1 |  | inconclusive: 16.4 µM [activator, single point] |
| COc1cc(C(=O)NC(=S)Nc2ccccc2N2CCOCC2)cc(OC)c1OC |  | inconclusive: 0.651 µM [activator, full curve, poor fit] |
| CCOC(=O)c1c(NC(=O)CN2C(=O)NC3(CCC(C)CC3)C2=O)sc(C(=O)N(C)C)c1C (stereo not drawn) | inactive: -11.7% |  |
| CN(CCNC(=O)c1c[nH]c2c1ccc1ccccc12)CCNC(=O)c1c[nH]c2c1ccc1ccccc12 |  | inconclusive: 25.9 µM [activator, single point] |
| O=C(c1ccc(=O)oc1)N1CCOCC1 |  | inconclusive: 6.51 µM [activator, single point] |
| c1ccc(COCCN2CCN(CCOCc3ccccc3)CC2)cc1 | inactive: -1.71% |  |
| Cc1ccc(NC(=S)Nc2ccc(S(=O)(=O)N3CCOCC3)cc2)cc1S(=O)(=O)N1CCOCC1 |  | inconclusive: 0.731 µM [activator, partial curve, poor fit] |
| CCOC(=O)c1c(NC(=O)CCS(=O)(=O)c2ccccc2)sc2c1CCN(C(C)C)C2 |  | inconclusive: 29.1 µM [activator, single point] |
| O=C(CSc1n[nH]c(-c2ccncc2)n1)c1ccccc1 |  | inconclusive: 23.1 µM [activator, single point] |
| CCC(C(=O)NCCc1ccc(C)cc1)n1nc(C)c2c(C)n(-c3ccccc3)nc2c1=O (stereo not drawn) |  | inconclusive: 23.1 µM [activator, partial curve, poor fit] |

Part of the list above, bar-delimited.
Structure (SMILES) | re-replication activation | Potency
COc1ccc(CN(CC(=O)NC2CCCC2)C(=O)c2ccc(-c3ccccc3)[nH]2)cc1 | inactive: 3.02% | 
CN(CCNC(=O)c1c[nH]c2c1ccc1ccccc12)CCNC(=O)c1c[nH]c2c1ccc1ccccc12 |  | inconclusive: 25.9 µM [activator, single point]
O=C(CSc1n[nH]c(-c2ccncc2)n1)c1ccccc1 |  | inconclusive: 23.1 µM [activator, single point]
